Data published in PMC7333352.
These are yes or no findings as the source states them, for the method shown. In cells and extracts the contact can be indirect. Binding can be weak; no strength is given. Sequences can lack the tags named with a protein.

What was measured:
[1] = biological target: T1, GFP-VP132 (Singapore grouper iridovirus (SGIV)) (UniProt Q5YFD3); assay: co-IP; GS cells co-transfected with HA-Atg5 or HA-LC3 and a GFP fusion, lysed 36 h after co-transfection in IP lysis buffer with protease inhibitors; anti-GFP on Dynabeads Protein G; blots with anti-GFP and anti-HA
T1 sequence: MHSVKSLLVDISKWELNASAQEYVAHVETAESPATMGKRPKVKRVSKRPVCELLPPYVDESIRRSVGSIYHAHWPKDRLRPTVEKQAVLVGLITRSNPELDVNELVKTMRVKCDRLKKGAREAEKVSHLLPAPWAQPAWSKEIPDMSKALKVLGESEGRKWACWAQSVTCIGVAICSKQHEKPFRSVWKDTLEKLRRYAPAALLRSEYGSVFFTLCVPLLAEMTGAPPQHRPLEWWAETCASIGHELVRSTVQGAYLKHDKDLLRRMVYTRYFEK

[2] = biological target: T2, GFP-VP122 (Singapore grouper iridovirus (SGIV)) (UniProt Q5YFE3); assay: as above
T2 sequence: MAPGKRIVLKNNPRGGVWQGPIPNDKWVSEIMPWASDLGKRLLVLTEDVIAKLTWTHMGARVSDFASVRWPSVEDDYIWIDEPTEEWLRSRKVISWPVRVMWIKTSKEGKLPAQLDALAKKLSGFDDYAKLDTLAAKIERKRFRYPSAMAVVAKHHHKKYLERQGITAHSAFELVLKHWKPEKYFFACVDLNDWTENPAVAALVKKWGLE

| Substance | binding [1] | binding [2] |
| --- | --- | --- |
| HA-Atg5 | binds | binds |
| HA-LC3 | no binding | no binding |
